This is an account of results in paper PMC3230590, “Structure of the Bro1 Domain Protein BROX and Functional Analyses of the ALIX Bro1 Domain in HIV-1 Budding” (PLoS ONE, 2011).

The chains behind the UniProt entries cited, without tags or fusion partners. Where a name states a change or a piece, a line headed by the entry shows the natural chain unless it says otherwise.
UniProt Q5VW32: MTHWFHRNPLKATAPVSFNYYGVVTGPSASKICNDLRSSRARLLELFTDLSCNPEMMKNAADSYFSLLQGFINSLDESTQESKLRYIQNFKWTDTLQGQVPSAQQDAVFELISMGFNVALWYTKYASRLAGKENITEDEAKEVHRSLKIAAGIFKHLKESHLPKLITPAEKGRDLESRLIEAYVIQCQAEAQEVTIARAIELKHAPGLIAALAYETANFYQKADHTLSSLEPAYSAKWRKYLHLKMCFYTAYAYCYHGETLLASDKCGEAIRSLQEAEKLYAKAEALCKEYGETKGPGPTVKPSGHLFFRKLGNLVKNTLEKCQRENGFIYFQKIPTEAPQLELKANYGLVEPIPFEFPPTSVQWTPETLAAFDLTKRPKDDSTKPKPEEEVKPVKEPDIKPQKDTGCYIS

The assay addresses T1, GST-CHMP4B(205-224) (UniProt Q9H444).
T1 sequence: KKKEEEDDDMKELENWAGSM
The assay is described as follows: SPR; Biacore 2000; CM5 chip with amine-coupled anti-GST antibody capturing GST-CHMP4B(205-224) or GST alone from crude E. coli lysates; pure BROX proteins injected in triplicate, 1.5-fold dilution series from 400 µM; equilibrium responses fit to 1:1 isotherms; both purified. A general note: SPR reads the build-up and loss of mass on a sensor chip optically.

Results are given in words; binding and its absence hold for the method and conditions named. Tags and fused reporters may be left off the sequences shown.

As to BROX L212D (from UniProt Q5VW32), the binding result is “no binding (tested: 400 µM)”.
Turning to BROX K141E (from UniProt Q5VW32), the binding result is “no binding (tested: 400 µM)”.
